Patent publication US20060258607

Sequences of proteins named here, by UniProt entry; tags and fusion partners are left off. A change or cut given only in a name is not applied to a line headed by its entry.
UniProt Q9UBU3: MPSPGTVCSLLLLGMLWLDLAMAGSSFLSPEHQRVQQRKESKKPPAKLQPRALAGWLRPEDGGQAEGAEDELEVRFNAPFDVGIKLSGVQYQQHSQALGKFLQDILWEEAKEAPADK
UniProt Q9QYH7: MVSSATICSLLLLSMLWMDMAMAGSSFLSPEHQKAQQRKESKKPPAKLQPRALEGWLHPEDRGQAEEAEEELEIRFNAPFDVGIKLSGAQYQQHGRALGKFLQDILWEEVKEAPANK

Assays:
[1] = molecular target: human ghrelin (L-peptide, octanoylated) (Homo sapiens) (UniProt Q9UBU3); assay: activity in cells; settings: L-RNA, synthetic protein, protein details: synthetic peptide, octanoyl-modified, Bachem, synthetic backbone, mirror-image nucleic acid; for functional effect of the aptamer: dose not given here; for IC50: 37 C
[2] = molecular target: human des-octanoyl ghrelin (Homo sapiens) (UniProt Q9UBU3); assay: competition with a labelled probe; settings: L-RNA; internal hexaethylene glycol spacer [all L-RNA (1-44); hexaethylene glycol spacer left out between 30 and 31]; 100-fold excess des-octanoyl ghrelin does not compete; synthetic protein; protein details: synthetic peptide, not octanoylated; synthetic backbone; mirror-image nucleic acid; letters built from the parent sequence and the stated change; variant of MS-P2-F1 / SOT-E Spiegelmer
[3] = molecular target: T1, rat ghrelin (Rattus norvegicus) (UniProt Q9QYH7); assay: activity in cells; settings: L-RNA; 5'-40 kDa PEG; internal hexaethylene glycol spacer [all L-RNA (1-44); 5'-40 kDa PEG at 1; hexaethylene glycol spacer left out between 30 and 31]; in vivo suppression of rat ghrelin-induced GH release in rats; maximal at 75 nmol/kg; synthetic protein; synthetic backbone; mirror-image nucleic acid; letters built from the parent sequence and the stated change; variant of SOT-E-19
T1 sequence: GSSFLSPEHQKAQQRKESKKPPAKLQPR

[4] = molecular target: human ghrelin (L-peptide, octanoylated) (Homo sapiens) (UniProt Q9UBU3); assay: ELONA; settings: L-RNA; 5'-biotin; immobilised Spiegelmer captures octanoyl-ghrelin concentration-dependently, room temperature; synthetic protein; protein details: synthetic peptide, octanoyl-modified, Bachem; label: 5'-biotin; synthetic backbone; mirror-image nucleic acid; variant of SOT-C (NOX-B11) Spiegelmer
[5] = three internal nucleotides replaced by hydrophilic spacer, spacer for three nucleotides, D-109 optimal position, variant of SOT-D-108
[6] = no loss of binding or inhibition, IC50 in figure, variant of SOT-E-19
[7] = full activity retained, variant of SOT-D-000

For “GGGUGAGCGUAAGACCGAAGGUAACCAAUCCUACCGCGGUGAGGCAGCAC [SOT-E-11]”, the “functional effect of the aptamer” value ([1]; hydrophilic (hexaethylene glycol) spacer replaces U37-A42 [all L-RNA (1-50), hexaethylene glycol spacer left out between 36 and 37 (replaces parent U37-A42)], no loss of activity, letters built from the parent sequence and the stated change, variant of MS-P2-F1 / SOT-E Spiegelmer) was “active”.

“CGGUGAGGCAGCACGCGUAAGACCGAAGGUAACCAAUCCUACCG [SOT-E-21]” was tested, and the “functional effect of the aptamer” value ([1]; internal hydrophilic spacer [all L-RNA, internal hydrophilic spacer (N, left out) between 14 and 15], no loss of activity, letters built from the parent sequence and the stated change, variant of SOT-E-19) was “active”.

“GCGUAAGACCGAAGGUAACCAAUCCUACCGCGGUGAGGCAGCAC [SOT-E-19-5'-Amino]” showed an IC50 ([1]; 5'-aminohexyl, internal hexaethylene glycol spacer [all L-RNA (1-44), 5'-aminohexyl at 1, hexaethylene glycol spacer left out between 30 and 31], calcium release, 2 nM ghrelin, letters built from the parent sequence and the stated change, variant of SOT-E-19) of 4 nM.

“CGGUGAGGCAAUAAGACCGAAGGUAACCAUUCCUACCG [SOT-D-102]” was tested, and the “functional effect of the aptamer” value ([1]; deletion of three nucleotides loses activity, variant of SOT-D-100) was “less active”.

For “CCGGUGAGGCAGUAAGACCGAAGGUAACCAUUCCUACCGG [SOT-D-110]”, the “functional effect of the aptamer” value [1, 5] was “active”.

In the case of “GCGUAAGACCGAAGGUAACCAAUCCUACCGCGGUGAGGCAGC [SOT-E-33]”, the “functional effect of the aptamer” value ([1]; internal hydrophilic spacer [all L-RNA, internal hydrophilic spacer (N, left out) between 30 and 31], reduced antagonism, letters built from the parent sequence and the stated change, variant of SOT-E-19) is reported as “less active”.

With “GGGUGAGCGUAAGACCGAAGGUAACCAAUCCUACCGUAUCUACGGUGAGGCAGCAC [MS-P2-F1 / SOT-E Spiegelmer]” the IC50 ([1]; GHS-R1a CHO calcium release) was 4 nM.

“GCGUAAGACCGAAGGUAACCAAUCCUACCGCGGUGAGGCAGCAC [SOT-E-19]” was tested, and the IC50 ([1]; internal hexaethylene glycol spacer [all L-RNA (1-44), hexaethylene glycol spacer left out between 30 and 31], calcium release, 2 nM ghrelin, letters built from the parent sequence and the stated change, variant of MS-P2-F1 / SOT-E Spiegelmer) was 4 nM and the binding result [2] was “no binding”.

In the case of “CGGUGAGGCAGCGCGUAAGACCGAAGGUAACCAAUCCUACCG [SOT-E-25]”, the “functional effect of the aptamer” value ([1]; internal hydrophilic spacer [all L-RNA, internal hydrophilic spacer (N, left out) between 12 and 13], reduced antagonism, letters built from the parent sequence and the stated change, variant of SOT-E-21) is reported as “less active”.

“GCGUAAGACCGAAGGUAACCAAUCCUACCGCAACGGUGAGGCAGCAC [SOT-E-19-L4]” was tested, and the “functional effect of the aptamer” value [1, 6] was “active”.

In the case of “GCGUAAGACCGAAGGUAACCAAUCCUACCGCGGUGAGGCAGCAC [SOT-E-19-5'-PEG]”, the IC50 ([1]; 5'-40 kDa PEG, internal hexaethylene glycol spacer [all L-RNA (1-44), 5'-40 kDa PEG at 1, hexaethylene glycol spacer left out between 30 and 31], calcium release, 2 nM ghrelin, letters built from the parent sequence and the stated change, variant of SOT-E-19) is reported as 4 nM and the “functional effect of the aptamer” value [3] is reported as “active”.

With “CGUGCGGUGAGGCAGACGUAAGACCGAAGGUAACCAUUCCUACCCACG [SOT-D-000]” the “functional effect of the aptamer” value ([1]; parent of truncations, room temperature) was “active”.

In the case of “CCGGUGAGGCAGUAAGACCGAAGGUAACCAUUCCUACCGG [5'-PEG-SOT-D-109]”, the “functional effect of the aptamer” value ([1]; 5'-40 kDa PEG, internal hydrophilic spacer, same IC50 as unPEGylated D-109, room temperature, variant of SOT-D-109) is reported as “active”.

In the case of “GGUGAGGCAGACGUAAGACCGAAGGUAACCAUUCCUACC [SOT-D-104]”, the “functional effect of the aptamer” value ([1]; significant loss of binding activity, variant of SOT-D-000) is reported as “less active”.

“CGUGUGAGGCAAUAAAACUUAAGUCCGAAGGUAACCAAUCCUACACG [SOT-C (NOX-B11) Spiegelmer]” was tested, and the IC50 ([1]; calcium release) was 20 nM.

“CGUGUGAGGCAAUAAAACUUAAGUCCGAAGGUAACCAAUCCUACACG [biotinylated NOX-B11]”: binds [4].

For “GCGUAAGACCGAAGGUAACCAAUCCUACCGACACGGUGAGGCAGCAC [SOT-E-19-L3]”, the “functional effect of the aptamer” value [1, 6] was “active”.

For “CCGGUGAGGCAGACGUAAGACCGAAGGUAACCAUUCCUACCGG [SOT-D-108]”, the “functional effect of the aptamer” value [1, 7] was “active”.

In the case of “CGGUGAGGCAGACGUAAGACCGAAGGUAACCAUUCCUACCG [SOT-D-100]”, the “functional effect of the aptamer” value [1, 7] is reported as “active”.

For “CCGGUGAGGCCGUAAGACCGAAGGUAACCAUUCCUACCGG [SOT-D-111]”, the “functional effect of the aptamer” value [1, 5] was “active”.

“GCGUAAGACCGAAGGUAACCAAUCCUACCGUAUCUACGGUGAGGCAGCAC [SOT-E-14]” was tested, and the “functional effect of the aptamer” value ([1]; full activity, variant of MS-P2-F1 / SOT-E Spiegelmer) was “active”.

“GGUAGGCAGACGUAAGACCGAAGGUAACCAUUCCUACC [SOT-D-106]” was tested, and the “functional effect of the aptamer” value ([1]; virtually inactive, variant of SOT-D-104) was “not active”.

“CGGUGAGGCAGAUAAGACCGAAGGUAACCAUUCCUACCG [SOT-D-101]” was tested, and the “functional effect of the aptamer” value ([1]; deletion of two nucleotides tolerated, variant of SOT-D-100) was “active”.

With “GGGUGAGCGUAAGACCGAAGGUAACCAAUCCUACCGUAUCUACGGUGAGGCAGC [SOT-E-12]” the “functional effect of the aptamer” value ([1]; 3' truncation reduces binding, variant of MS-P2-F1 / SOT-E Spiegelmer) was “less active”.

For some assays here: A negative result means that nothing was seen under these conditions. For some assays here: Construct, isoform or probe ends are uncertain for at least one entry. For some assays here: Weaker means in comparison with the reference protein, sequence or condition of that experiment. For some assays here: Protein sequences can lack the tags named with them.
